The supplement of paper PMC12823440, “Inhibitors supercharge kinase turnover through native proteolytic circuits” (Nature, 2025)
Counter-ions that a name gives are not always drawn. The list shows a part of the results. The calls rarely recur for the same compound in another form.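 Kinases, fused to nanoluciferase, were expressed in K562 cells; luminescence was measured every 4 h from 2 to 18 h as percent of control (DMSO = 100%, positive control = 0%). A time point is decreased if signal falls significantly (2 sigma). Hits were called by the authors by a rule that is not shown; the count of time points alone does not decide it.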

Sequences of proteins named here, by UniProt entry; tags and fusion partners are left off. A change or cut given only in a name is not applied to a line headed by its entry.
UniProt Q9UM73: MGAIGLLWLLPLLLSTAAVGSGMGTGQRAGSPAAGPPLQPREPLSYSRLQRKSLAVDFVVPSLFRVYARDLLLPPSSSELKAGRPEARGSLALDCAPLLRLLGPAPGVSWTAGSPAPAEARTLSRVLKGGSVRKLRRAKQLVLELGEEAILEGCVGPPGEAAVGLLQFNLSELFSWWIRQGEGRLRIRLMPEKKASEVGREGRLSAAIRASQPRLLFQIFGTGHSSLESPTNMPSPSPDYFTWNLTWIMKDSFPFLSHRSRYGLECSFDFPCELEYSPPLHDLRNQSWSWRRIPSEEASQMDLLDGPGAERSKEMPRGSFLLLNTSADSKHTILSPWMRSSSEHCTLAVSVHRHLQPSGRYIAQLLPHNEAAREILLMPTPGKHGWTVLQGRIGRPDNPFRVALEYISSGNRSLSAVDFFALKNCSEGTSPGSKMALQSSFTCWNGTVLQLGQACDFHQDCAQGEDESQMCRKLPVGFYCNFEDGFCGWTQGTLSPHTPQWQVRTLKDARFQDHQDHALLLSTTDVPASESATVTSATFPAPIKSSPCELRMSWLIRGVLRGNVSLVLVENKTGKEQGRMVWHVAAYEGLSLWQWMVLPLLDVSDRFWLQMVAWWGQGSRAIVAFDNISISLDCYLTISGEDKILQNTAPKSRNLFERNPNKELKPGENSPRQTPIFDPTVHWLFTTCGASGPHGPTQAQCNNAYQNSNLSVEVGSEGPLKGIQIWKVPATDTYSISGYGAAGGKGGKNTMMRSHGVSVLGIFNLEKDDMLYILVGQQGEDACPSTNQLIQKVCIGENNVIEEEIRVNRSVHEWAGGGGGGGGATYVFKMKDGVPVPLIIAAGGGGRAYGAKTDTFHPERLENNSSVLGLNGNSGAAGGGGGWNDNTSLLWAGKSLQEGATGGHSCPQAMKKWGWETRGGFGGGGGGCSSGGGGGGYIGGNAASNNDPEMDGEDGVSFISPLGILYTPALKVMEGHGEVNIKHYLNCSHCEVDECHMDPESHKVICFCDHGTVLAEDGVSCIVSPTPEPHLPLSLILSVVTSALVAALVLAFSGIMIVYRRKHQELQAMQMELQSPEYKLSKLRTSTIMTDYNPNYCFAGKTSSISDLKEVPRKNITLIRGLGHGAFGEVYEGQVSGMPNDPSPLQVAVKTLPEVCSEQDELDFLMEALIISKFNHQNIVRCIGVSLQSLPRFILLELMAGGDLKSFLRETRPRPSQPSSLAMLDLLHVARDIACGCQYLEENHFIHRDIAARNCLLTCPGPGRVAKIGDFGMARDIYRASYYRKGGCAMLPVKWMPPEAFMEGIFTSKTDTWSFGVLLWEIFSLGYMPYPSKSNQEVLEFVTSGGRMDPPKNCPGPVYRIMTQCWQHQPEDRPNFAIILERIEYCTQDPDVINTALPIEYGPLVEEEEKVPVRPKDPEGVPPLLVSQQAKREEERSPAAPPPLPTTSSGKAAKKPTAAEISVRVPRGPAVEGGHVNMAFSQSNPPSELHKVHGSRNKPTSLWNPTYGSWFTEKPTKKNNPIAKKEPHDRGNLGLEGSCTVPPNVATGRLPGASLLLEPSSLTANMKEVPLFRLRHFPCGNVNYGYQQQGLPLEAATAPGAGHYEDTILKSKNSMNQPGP

target: ALK (UniProt Q9UM73); assay: kinase-Nluc reporter destabilization hit call (1 = scored as downregulated) (binary); higher = compound decreases kinase abundance; conditions: K562; 2-18 h

kinase-Nluc reporter destabilization hit call, inactive:
CC(C)CCN1c2nc(Nc3cc(F)c(O)c(F)c3)ncc2N(C)C(=O)C1C (stereo not drawn) (2.5 µM) 0, CC(C)=CC[C@@H](O)C1=CC(=O)c2c(O)ccc(O)c2C1=O [Shikonin] (10 µM) 0, CCC(=O)Nc1cccc(Oc2nc(Nc3ccc(N4CCN(C)CC4)cc3OC)ncc2Cl)c1 (10 µM) 0, CC(C)=CCC/C(C)=C/CC/C(C)=C/C=C/C(C)=C/C(=O)O [Peretinoin] (10 µM) 0, COc1ccc2c(Oc3ccc4c(C(=O)Nc5ccccc5N)cccc4c3)ccnc2c1 [Chiauranib] (10 µM) 0, Cc1nn(C)cc1-c1nc2c(N3CCN(Cc4ccc(Cl)cc4)CC3)c(Cl)cnc2[nH]1 (10 µM) 0, CNC(=O)c1cc2c(Oc3ccc(NC(=O)C4(C(=O)Nc5ccc(F)cc5)CC4)cc3)ccnc2cc1OC (2.5 µM) 0, O=C(Nc1cccnc1)c1cc(-c2ccnc(F)c2)ccc1OCc1ccccc1 (10 µM) 0, CN(C)c1ccc(-c2nc3ncc(Cl)c(N4CCN(CC(=O)Nc5nccs5)CC4)c3[nH]2)cc1 (2 µM) 0, Cc1cc(C(=O)NC(C)(C)C)cc(C#Cc2ccc3c4c(oc3c2)C(C)(C)c2cc(NS(C)(=O)=O)ccc2C4=O)n1 (10 µM) 0, O=C(O)c1cc(N(Cc2ccccc2O)Cc2cc(O)ccc2O)ccc1O [Lavendustin A] (10 µM) 0, C[C@@H](Nc1ncnc2[nH]c(-c3ccc(O)cc3)cc12)c1ccccc1 (2.5 µM) 0, O=C(O)c1ccc(/C=C/S(=O)(=O)Cc2ccc(Cl)cc2)cc1 [Recilisib] (10 µM) 0, Nc1nc(NCCNc2ncc(-n3ccnc3)c(-c3ccc(Cl)cc3Cl)n2)ccc1[N+](=O)[O-] (2.5 µM) 0, Cc1cnc(NC(=O)c2cc(Oc3cnc(C(=O)N(C)C)nc3)c3cc(C)oc3c2)cn1 (10 µM) 0, CNC(=O)CNc1cnc2ccc(-c3ccc(OC)c(OC)c3)cc2n1 (10 µM) 0, N[C@@H]1CCCN(c2c(/C=C3\SC(=O)NC3=O)cccc2-c2ccccc2)C1 (10 µM) 0, CO[C@H]1C[C@@H]2CC[C@@H](C)[C@@](O)(O2)C(=O)C(=O)N2CCCC[C@H]2C(=O)O[C@H]([C@H](C)C[C@@H]2CC[C@@H](OC(=O)C(C)(CO)CO)[C@H](OC)C2)CC(=O)[C@H](C)/C=C(\C)[C@@H](O)[C@@H](OC)C(=O)[C@H](C)C[C@H](C)/C=C/C=C/C=C/1C [Temsirolimus] (2.5 µM) 0, COc1cc2nccc(Oc3ccc(NC(=O)c4cn(C(C)C)c(=O)n(-c5ccc(F)cc5)c4=O)cc3F)c2cc1OC (0.5 µM) 0, C=C1CCC[C@]2(C)C=C3OC(=O)C(C)=C3C[C@@H]12 [Atractylenolide I] (10 µM) 0, C=CC(=O)Nc1cc(Nc2nccc(-c3cn(C)c4ccccc34)n2)c(OC)cc1OCCN(C)C [Rezivertinib] (2.5 µM) 0, C=C1C(=O)[C@@]23[C@H](O)C[C@@H]4C(C)(C)C(=O)CC[C@@]4(C)[C@@H]2CC[C@@H]1[C@H]3O [Glaucocalyxin A] (2.5 µM) 0, NC1(C(=O)NCCCn2cc(-c3ccc(OC(F)(F)F)cc3)c3cc(CN4CCN(Cc5c(Cl)cccc5Cl)CC4)ccc32)CCNCC1 (2.5 µM) 0, CC(Sc1nc2c(cnn2-c2cccc(Cl)c2)c(=O)[nH]1)C(N)=O (stereo not drawn) (10 µM) 0, Fc1ccc2[nH]ccc2c1-c1nc(N2CCOCC2)c2sc(CN3CCN(CC4CC4)CC3)cc2n1 (10 µM) 0, Cn1cc(-c2cc(Oc3cc(F)c(NC(=O)C4(C(=O)Nc5ccccc5)CC4)cc3F)ccn2)cn1 (2.5 µM) 0, COc1ccc(S(=O)(=O)Nc2cc(-c3c(O)ccc4ccccc34)c(O)c3ccccc23)cc1 (10 µM) 0, Cn1c2cc([S+](C)[O-])sc2c2cnn(Cc3cccc(N)c3)c(=O)c21 (stereo not drawn) (2.5 µM) 0, O=C(NCCO)c1cc(C(=O)NCCO)cc(C(=O)NCCO)c1 (10 µM) 0, N#Cc1cnc2c(Cl)cc(NCc3cn(CCN4CCCCCC4)nn3)cc2c1Nc1ccc(F)c(Cl)c1 [Cot inhibitor-1] (10 µM) 0, Cn1c(=O)c2c(nc(S(C)(=O)=O)n2C)n(CC#Cc2cccc(O)c2)c1=O (2.5 µM) 0, Cc1ccc(C)c(OCCn2cc(C(=O)O)c3ccccc32)c1 (10 µM) 0, C=CC(=O)Nc1ccc(C(=O)Nc2[nH]nc3c2CN(C(=O)N[C@H](CN(C)C)c2ccccc2)C3(C)C)cc1 (10 µM) 0, Nc1ncnc2c1nc(Br)n2[C@@H]1O[C@@H]2COP(=O)(O)O[C@H]2[C@H]1O [8-Bromo-cAMP sodium salt] (10 µM) 0, O=c1[nH]ccc2nc(-c3ccc(CN4CCC(c5nc(-c6ccccn6)n[nH]5)CC4)cc3)c(-c3ccccc3)cc12 (10 µM) 0, COc1ccc(Nc2ncc(C(F)(F)F)c(NC3CC3)n2)cc1OC (10 µM) 0, O=C1NC(=O)/C(=C\c2c[nH]c(=O)c(-c3ccc(N4CCNCC4)nc3)c2)S1 [Protein kinase inhibitors 1 hydrochloride] (10 µM) 0, CCN(CC)CCCC(C)Nc1nc(C)cc(Nc2ccc3nc(C)cc(N)c3c2)n1 (stereo not drawn) (10 µM) 0
